Reference: PMC12251889
Results are given in words; binding and its absence hold for the method and conditions named. In cells and extracts the contact can be indirect. Binding calls can cover weak binding; strength is not graded here. Sequences can lack the tags named with a protein. Values belong to the binder of their own block, whether it stands above or below them.

By UniProt entry, the sequences of proteins in these tests, tags left out. Where a name states a change or a piece, a line headed by the entry shows the natural chain unless it says otherwise.
UniProt Q43011: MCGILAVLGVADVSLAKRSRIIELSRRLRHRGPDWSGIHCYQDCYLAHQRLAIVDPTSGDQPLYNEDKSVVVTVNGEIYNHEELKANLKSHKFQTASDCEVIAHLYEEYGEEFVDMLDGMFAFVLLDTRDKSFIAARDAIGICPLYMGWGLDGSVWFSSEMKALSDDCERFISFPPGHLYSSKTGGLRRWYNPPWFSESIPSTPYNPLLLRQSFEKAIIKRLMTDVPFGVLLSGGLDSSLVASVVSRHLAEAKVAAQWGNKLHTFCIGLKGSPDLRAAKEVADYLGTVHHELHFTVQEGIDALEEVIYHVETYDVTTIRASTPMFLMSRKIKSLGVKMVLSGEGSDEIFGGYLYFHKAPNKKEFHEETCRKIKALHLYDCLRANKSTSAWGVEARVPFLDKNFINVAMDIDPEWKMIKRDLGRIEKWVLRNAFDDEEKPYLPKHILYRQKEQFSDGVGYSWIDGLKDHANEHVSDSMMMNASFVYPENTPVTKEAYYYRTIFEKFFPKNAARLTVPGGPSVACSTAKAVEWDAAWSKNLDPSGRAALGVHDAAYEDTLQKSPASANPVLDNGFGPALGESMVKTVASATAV

What was measured:
[1] = molecular target: MBP-OsASN2 fusion protein (rice) (UniProt Q43011); assay: pull-down; resin-bound MBP or MBP-OsASN2 mixed with His-OsPPDKB at 4 °C overnight; elution blotted with anti-His and anti-MBP
[2] = molecular target: OsASN2-GFP fusion protein (rice) (UniProt Q43011); assay: co-IP; GFP or OsASN2-GFP transiently co-transformed with OsPPDKB-MYC into rice protoplasts; GFP-Trap 12 h after transformation; blots with anti-GFP and anti-MYC

- binding [1]: binds
B1: His-OsPPDKB fusion protein (enzyme, UniProt Q6AVA8 72-947)
chain: TTKKRVFHFGKGKSEGNKAMKDLLGGKGANLAEMASIGLSVPPGFTVSTEACQQYQAAGKTLPAGLWEEIVEGLQWVEEYMAARLGDPARPLLLSVRSGAAVSMPGMMDTVLNLGLNDEVAAGLAAKSGDRFAYDSYRRFLDMFGNVVMDIPHALFEEKLEAMKAVKGLHNDTDLTATDLKELVAQYKDVYVEAKGEPFPSDPKKQLQLAVLAVFNSWDSPRAIKYRSINKITGLKGTAVNVQTMVFGNMGNTSGTGVLFTRNPSTGEKKLYGEFLVNAQGEDVVAGIRTPEDLDAMRDHMPEPYEELVENCKILESHYKEMMDIEFTVQENRLWMLQCRTGKRTGKGAVKIAVDMVNEGLVERRTALKMVEPGHLDQLLHPQFENPSGYKDKVIATGLPASPGAAVGQIVFTAEDAEAWHAQGKDVILVRTETSPEDVGGMHAAVGILTARGGMTSHAAVVARGWGKCCVSGCSSVRVNDASKIVVIEDKALHEGEWLSLNGSTGEVIIGKQPLCPPALSGDLETFMSWVDEVRKLKVMANADTPEDATTARQNGAEGIGLCRTEHMFFASDERIKAVRQMIMASSLELRQKALDRLLPYQRSDFEGIFRAMDGLPVTIRLLDPPLHEFLPEGHVEDMVRELCSETGAAQDDVLARVEKLSEVNPMLGFRGCRLGISYPELTEMQARAIFEAAITMTNQGIQVFPEIMVPLVGTPQELGHQVDVIRQIANKVFTDMGKTIGYKVGTMIEIPRAALVADEIAEQAEFFSFGTNDLTQMTFGYSRDDVGKFLPIYLSQGILQHDPFEVLDQRGVGELVKLATERGRKARPNLKVGICGEHGGEPLSVAFFAKAGLDYVSCSPFRVPIARLAAAQVLL

- binding [2]: binds
B2: OsPPDKB-MYC (enzyme, UniProt Q6AVA8 72-947)
chain: B1 chain
